# Literature values in US20240228463A1, “SODIUM CHANNEL INHIBITORS AND METHODS OF DESIGNING SAME” (Genentech, Inc., priority 2021, published 2024).
# Details: administered topically (Lidoderm patch); cited from earlier work
smiles,measurement,value
CCN(CC)CC(=O)Nc1c(C)cccc1C [lidocaine],plasma concentrations,about 1 μM
